{"source": "ChEMBL document CHEMBL1764994", "about": "“QSAR-based permeability model for drug-like compounds” (Bioorg Med Chem, 2011)", "key": {"Caco-2 [1]": {"test_system": "Caco-2", "conditions": "human, Caco-2, 2 h"}, "Caco-2 [2]": {"test_system": "Caco-2", "conditions": "human"}}, "data": [{"smiles": "COC(=O)C1=C(C)NC(C)=C(C(=O)OC)C1c1ccccc1[N+](=O)[O-]", "note": "[NIFEDIPINE]", "values": [{"measurement": "logPapp", "setting": "Caco-2 [1]", "result": -4.49}, {"measurement": "logPapp", "setting": "Caco-2 [2]", "result": -4.61}]}]}
